The target in the test is LRRC8A‐Cerulean (UniProt Q8IWT6). Put plainly: FRET or BRET; sensitised emission inter-subunit FRET (cFRET) in living HeLa cells co-transfected with LRRC8A-Cerulean (donor) and LRRC8E-Venus (acceptor); room temperature; isotonic solution, then hypotonic solution, S1P, SEW-2871 or blockers. (In BRET a luciferase serves as donor, and the signal depends on an acceptor being close.)

Sequences of proteins named here, by UniProt entry; tags and fusion partners are left off.
UniProt Q8IWT6: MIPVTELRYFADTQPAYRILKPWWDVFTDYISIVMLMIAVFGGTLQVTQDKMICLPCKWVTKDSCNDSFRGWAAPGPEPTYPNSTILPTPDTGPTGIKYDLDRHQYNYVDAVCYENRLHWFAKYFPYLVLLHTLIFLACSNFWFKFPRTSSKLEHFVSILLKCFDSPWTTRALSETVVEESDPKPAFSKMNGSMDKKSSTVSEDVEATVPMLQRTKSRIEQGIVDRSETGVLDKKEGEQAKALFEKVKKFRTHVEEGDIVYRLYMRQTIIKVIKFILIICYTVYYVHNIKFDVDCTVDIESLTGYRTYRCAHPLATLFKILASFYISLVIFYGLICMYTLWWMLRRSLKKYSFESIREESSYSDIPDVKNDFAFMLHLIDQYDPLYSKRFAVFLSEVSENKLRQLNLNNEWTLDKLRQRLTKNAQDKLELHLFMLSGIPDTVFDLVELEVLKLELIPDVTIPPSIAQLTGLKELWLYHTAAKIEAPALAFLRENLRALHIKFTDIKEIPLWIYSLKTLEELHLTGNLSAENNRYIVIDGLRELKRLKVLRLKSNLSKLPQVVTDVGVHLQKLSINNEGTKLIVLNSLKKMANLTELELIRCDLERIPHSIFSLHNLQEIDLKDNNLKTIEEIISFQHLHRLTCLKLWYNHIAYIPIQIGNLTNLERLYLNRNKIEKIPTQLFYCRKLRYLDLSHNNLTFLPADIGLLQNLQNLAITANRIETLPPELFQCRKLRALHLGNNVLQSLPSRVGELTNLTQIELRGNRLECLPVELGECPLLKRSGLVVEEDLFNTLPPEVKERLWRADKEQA
UniProt Q6NSJ5: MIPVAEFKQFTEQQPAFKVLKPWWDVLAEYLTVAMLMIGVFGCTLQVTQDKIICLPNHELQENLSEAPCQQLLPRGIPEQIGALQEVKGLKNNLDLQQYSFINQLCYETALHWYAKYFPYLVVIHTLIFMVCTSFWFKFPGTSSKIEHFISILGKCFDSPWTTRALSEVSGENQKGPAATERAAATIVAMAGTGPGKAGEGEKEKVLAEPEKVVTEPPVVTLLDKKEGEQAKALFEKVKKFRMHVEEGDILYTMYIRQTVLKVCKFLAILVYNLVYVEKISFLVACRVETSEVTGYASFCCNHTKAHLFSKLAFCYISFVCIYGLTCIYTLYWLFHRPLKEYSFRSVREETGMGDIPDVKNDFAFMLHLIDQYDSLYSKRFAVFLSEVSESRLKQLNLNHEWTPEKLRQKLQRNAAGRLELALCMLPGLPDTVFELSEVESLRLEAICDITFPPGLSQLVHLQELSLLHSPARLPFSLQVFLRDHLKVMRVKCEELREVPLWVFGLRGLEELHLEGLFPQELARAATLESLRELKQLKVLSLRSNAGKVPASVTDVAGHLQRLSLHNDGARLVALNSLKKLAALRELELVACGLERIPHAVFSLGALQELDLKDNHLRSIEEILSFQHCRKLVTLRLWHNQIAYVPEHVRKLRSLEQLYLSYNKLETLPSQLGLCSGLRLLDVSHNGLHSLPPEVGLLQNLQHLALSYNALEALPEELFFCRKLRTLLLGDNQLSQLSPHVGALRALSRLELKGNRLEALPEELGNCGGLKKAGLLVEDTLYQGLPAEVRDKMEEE

Our source for the binding values is article PMC12333907.

No constants are given. Whether binding was seen depends on the method and setting. Binding seen in cells or lysates may run through a third protein. Some binding calls cover weakened binding; strength is not graded here.

For “LRRC8E‐Venus (from UniProt Q6NSJ5 1-796)”, the binding result is recorded as “binds”.
